# From PubChem BioAssay (NCATS)
# The inconclusive results got no clear call from the source; some entries with a clear call stand among them for comparison. Potencies beside an inconclusive call are fits to weak or partial responses and may not hold up. Calls of active or inactive are those of the source. The call rests on the fitted dose curve; in most records, active means well fitted cell-killing curve with a large enough effect; inconclusive means small, poorly fitted or top-dose-only effect, or effect the other way; inactive means no such curve, though single readings can be large or run the other way.
# Experiments:
# [1] = Quantitative High-Throughput drug screen in 47 multiple myeloma cell lines against the NCATS MIPE library collection: LP1_DSMZ cell viability assay (AID 1918982); further: nearly all actives have a fitted effect of over 35% in size
# In short: (§1)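 Inhibition of viability over 48 h was scored by ATP content (CellTiter-Glo) in 500-cell wells. Zero and full viability were defined by media-only and DMSO-only wells.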
# [2] = Quantitative High-Throughput drug screen in 47 multiple myeloma cell lines against the NCATS MIPE library collection: KMS34_JCRB cell viability assay (AID 1918985); further: nearly all actives have a fitted effect of over 40% in size
# In short: as §1
# [3] = Quantitative High-Throughput drug screen in 47 multiple myeloma cell lines against the NCATS MIPE library collection: OCIMY7_PLB cell viability assay (AID 1918987); conditions: OCI-MY7 myeloma viability, CellTiter-Glo ATP, 48 h; viability (% of DMSO): at 45.8 µM (top of the series); further: nearly all actives have a fitted effect of over 65% in size
# In short: as §1
# [4] = Quantitative High-Throughput drug screen in 47 multiple myeloma cell lines against the NCATS MIPE library collection: U266_ATCC cell viability assay (AID 1919864); conditions: U266 myeloma viability, CellTiter-Glo ATP luminescence, 48 h; viability (% of DMSO control): at 45.8 µM (top of the series); further: nearly all actives have a fitted effect of over 35% in size;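 on viability (% of DMSO control): 0% = media-only wells without cells and 100% = DMSO-only wells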
# In short: as §1
# [5] = Quantitative High-Throughput drug screen in 47 multiple myeloma cell lines against the NCATS MIPE library collection: XG6_PLB cell viability assay (AID 1919865); conditions: XG6 myeloma viability, CellTiter-Glo ATP luminescence, 48 h; viability (% of control): at 45.8 µM (top of the series); further: nearly all actives have a fitted effect of over 40% in size;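 on viability (% of control): 100% = DMSO-only wells and 0% = media-only wells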
# In short: as §1
# [6] = Quantitative High-Throughput drug screen in 47 multiple myeloma cell lines against the NCATS MIPE library collection: XG1_PLB cell viability assay (AID 1919866); conditions: CellTiter-Glo ATP, 48 h; viability: at 45.8 µM (top of the series); further: nearly all actives have a fitted effect of over 35% in size
# In short: as §1
# [7] = Quantitative High-Throughput drug screen in 47 multiple myeloma cell lines against the NCATS MIPE library collection: UTMC2_PLB cell viability assay (AID 1919868); conditions: CellTiter-Glo ATP luminescence, 48 h; viability (% of DMSO control): at 45.8 µM (top of the series); further: nearly all actives have a fitted effect of over 55% in size;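 on viability (% of DMSO control): 100% = DMSO-only wells and 0% = media-only wells without cells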
# In short: as §1
# [8] = Quantitative High-Throughput drug screen in 47 multiple myeloma cell lines against the NCATS MIPE library collection: RPMI8226_ATCC cell viability assay (AID 1919871); conditions: RPMI8226 myeloma viability, CellTiter-Glo ATP luminescence, 48 h; viability (% of control): at 45.8 µM (top of the series); further: nearly all actives have a fitted effect of over 30% in size
# In short: as §1
# [9] = Quantitative High-Throughput drug screen in 47 multiple myeloma cell lines against the NCATS MIPE library collection: OPM2_DSMZ cell viability assay (AID 1919872); further: nearly all actives have a fitted effect of over 30% in size
# In short: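 Approved and investigational drugs from MIPE 4.0 were added by pin tool to 500 cells per well. After 48 hours at 37C, ATP-based CellTiter-Glo luminescence indicated remaining viability.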
# [10] = Quantitative High-Throughput drug screen in 47 multiple myeloma cell lines against the NCATS MIPE library collection: KMS11_JCRBsus cell viability assay (AID 1919873); further: nearly all actives have a fitted effect of over 50% in size
# In short: as §1
# [11] = Quantitative High-Throughput drug screen in 47 multiple myeloma cell lines against the NCATS MIPE library collection: KMS28BM_JCRB cell viability assay (AID 1919874); further: nearly all actives have a fitted effect of over 35% in size
# In short: as §1
# [12] = Quantitative High-Throughput drug screen in 47 multiple myeloma cell lines against the NCATS MIPE library collection: KMS28PE_JCRB cell viability assay (AID 1918983); further: nearly all actives have a fitted effect of over 35% in size
# In short: as §1
# [13] = Quantitative High-Throughput drug screen in 47 multiple myeloma cell lines against the NCATS MIPE library collection: OCIMY5_PLB cell viability assay (AID 1918988); further: nearly all actives have a fitted effect of over 65% in size
# In short: as §1
# [14] = Quantitative High-Throughput drug screen in 47 multiple myeloma cell lines against the NCATS MIPE library collection: OPM1_PLB cell viability assay (AID 1918989); further: nearly all actives have a fitted effect of over 40% in size
# In short: as §1
# [15] = Quantitative High-Throughput drug screen in 47 multiple myeloma cell lines against the NCATS MIPE library collection: L363_DSMZ cell viability assay (AID 1918984); conditions: L363 myeloma viability, CellTiter-Glo ATP luminescence, 48 h; viability (% of control): at 45.8 µM (top of the series); further: nearly all actives have a fitted effect of over 40% in size
# In short: as §1
# [16] = Quantitative High-Throughput drug screen in 47 multiple myeloma cell lines against the NCATS MIPE library collection: PCM6_Riken cell viability assay (AID 1919870); further: nearly all actives have a fitted effect of over 30% in size
# In short: as §1
# [17] = Quantitative High-Throughput drug screen in 47 multiple myeloma cell lines against the NCATS MIPE library collection: SKMM1_PLB cell viability assay (AID 1919863); conditions: SKMM1 myeloma viability, CellTiter-Glo ATP, 48 h; viability: active compounds read low; further: nearly all actives have a fitted effect of over 35% in size
# In short: as §1
# [18] = Quantitative High-Throughput drug screen in 47 multiple myeloma cell lines against the NCATS MIPE library collection: PE2_PLB cell viability assay (AID 1919869); conditions: PE2_PLB myeloma cells viability, ATP luminescence, 48 h; viability (% of control): at 45.8 µM (top of the series); further: nearly all actives have a fitted effect of over 35% in size;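 on viability (% of control): 100% = DMSO-only wells and 0% = cell-free media-only wells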
# In short: as §1
# [19] = Quantitative High-Throughput drug screen in 47 multiple myeloma cell lines against the NCATS MIPE library collection: VP6_DJ cell viability assay (AID 1919867); conditions: ATP luminescence, 48 h; viability (% of DMSO): at 45.8 µM (top of the series); further: nearly all actives have a fitted effect of over 40% in size;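 on viability (% of DMSO): 100% = DMSO-only wells and 0% = wells with media alone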
# In short: as §1
# Potency means the concentration at half of the fitted maximal effect.
smiles,measurement,setting,value
CNC(=O)N1N=C(c2ccc(N)cc2)c2cc3c(cc2CC1C)OCO3 (stereo not drawn),Potency,[1],"inconclusive: 3.72 µM [cytotoxic, partial curve]"
same,Potency,[2],"inconclusive: 11.8 µM [cytotoxic, full curve]"
same,Potency,[3],active: 1.48 µM
same,Potency,[4],active: 3.72 µM
same,Potency,[5],active: 7.43 µM
same,Potency,[6],"inconclusive: 3.72 µM [cytotoxic, full curve]"
same,Potency,[7],"inconclusive: 6.62 µM [cytotoxic, partial curve, poor fit]"
same,Potency,[8],"inconclusive: 16.6 µM [cytotoxic, partial curve]"
same,Potency,[9],"inconclusive: 14.8 µM [cytotoxic, partial curve, poor fit]"
same,Potency,[10],"inconclusive: 2.35 µM [cytotoxic, full curve]"
same,Potency,[11],"inconclusive: 2.64 µM [cytotoxic, full curve]"
NC1=NC(=O)N2CC12 (stereo not drawn),Potency,[12],"inconclusive: 0.0066 µM [rising, full curve, poor fit]"
same,Potency,[13],"inconclusive: 26.4 µM [cytotoxic, single point]"
same,Potency,[14],"inconclusive: 20.9 µM [cytotoxic, partial curve, poor fit]"
same,Potency,[4],"inconclusive: 0.0033 µM [rising, full curve]"
same,Potency,[7],"inconclusive: 37.2 µM [cytotoxic, single point]"
same,Potency,[8],"inconclusive: 37.2 µM [cytotoxic, single point]"
same,Potency,[9],inactive
COc1ccc(C(CN(C)C)C2(O)CCCCC2)cc1 (stereo not drawn),Potency,[12],"inconclusive: 26.4 µM [cytotoxic, partial curve, poor fit]"
same,Potency,[15],inactive
same,Potency,[2],inactive
same,Potency,[3],"inconclusive: 4.18 µM [cytotoxic, partial curve, poor fit]"
same,Potency,[13],"inconclusive: 23.5 µM [cytotoxic, single point]"
same,Potency,[4],"inconclusive: 18.7 µM [cytotoxic, partial curve, poor fit]"
same,Potency,[5],"inconclusive: 18.7 µM [cytotoxic, partial curve, poor fit]"
same,Potency,[6],"inconclusive: 23.5 µM [cytotoxic, partial curve]"
same,Potency,[7],inactive
same,Potency,[16],"inconclusive: 10.5 µM [cytotoxic, partial curve, poor fit]"
same,Potency,[8],inactive
same,Potency,[11],"inconclusive: 37.2 µM [cytotoxic, single point]"
COC1(CS(=O)c2ccccc2)CCN(CCc2c[nH]c3ccc(F)cc23)CC1 (stereo not drawn),Potency,[15],"inconclusive: 5.9 µM [cytotoxic, partial curve, poor fit]"
same,Potency,[2],inactive
same,Potency,[3],"inconclusive: 9.35 µM [cytotoxic, partial curve, poor fit]"
same,Potency,[13],"inconclusive: 23.5 µM [cytotoxic, partial curve, poor fit]"
same,Potency,[14],"inconclusive: 23.5 µM [cytotoxic, single point]"
same,viability,[17],inactive: 116%
same,Potency,[4],inactive
same,Potency,[6],"inconclusive: 18.7 µM [cytotoxic, partial curve, poor fit]"
same,Potency,[7],inactive
same,Potency,[18],"inconclusive: 2.35 µM [cytotoxic, partial curve, poor fit]"
same,Potency,[10],"inconclusive: 0.935 µM [cytotoxic, full curve, poor fit]"
O=C(O)C(=O)c1cn(Cc2ccccc2)c2ccc(-c3ccc(OC(F)(F)F)cc3)cc12,Potency,[12],active: 3.32 µM
same,Potency,[2],inactive
same,Potency,[3],"inconclusive: 7.43 µM [cytotoxic, partial curve, poor fit]"
same,Potency,[13],"inconclusive: 29.6 µM [cytotoxic, partial curve, poor fit]"
same,Potency,[4],active: 23.5 µM
same,Potency,[5],"inconclusive: 20.9 µM [cytotoxic, single point]"
same,Potency,[19],"inconclusive: 20.9 µM [cytotoxic, partial curve, poor fit]"
same,Potency,[7],"inconclusive: 18.7 µM [cytotoxic, partial curve, poor fit]"
same,Potency,[18],"inconclusive: 33.2 µM [cytotoxic, single point]"
same,Potency,[8],inactive
same,Potency,[10],"inconclusive: 20.9 µM [cytotoxic, partial curve, poor fit]"
C[C@@H]1O[C@@H](O[C@@H]2C=C3CC[C@@H]4[C@@H](CC[C@]5(C)[C@H](c6ccc(=O)oc6)CC[C@@]45O)[C@@]3(C)CC2)[C@H](O)[C@H](O)[C@H]1O,Potency,[12],active: 0.0166 µM
same,Potency,[5],active: 0.0166 µM
same,viability,[6],inconclusive: 4.73% [cytotoxic]
same,viability (% of DMSO control),[7],inconclusive: 11% [cytotoxic]
same,Potency,[9],active: 0.0093 µM
C[C@H]1CCCC=CC2C[C@H](O)C[C@@H]2[C@H](O)C=CC(=O)O1 (stereo partly drawn),Potency,[12],"inconclusive: 0.0074 µM [cytotoxic, full curve]"
same,Potency,[15],inactive
same,Potency,[2],inactive
same,Potency,[3],inactive
same,Potency,[13],inactive
same,Potency,[5],inactive
same,Potency,[6],inactive
same,Potency,[19],inactive
same,Potency,[7],inactive
same,Potency,[18],inactive
same,Potency,[16],"inconclusive: 0.0074 µM [cytotoxic, full curve]"
same,Potency,[8],"inconclusive: 0.0235 µM [cytotoxic, full curve]"
same,Potency,[9],"inconclusive: 0.0021 µM [cytotoxic, full curve, poor fit]"
same,Potency,[10],"inconclusive: 0.0023 µM [cytotoxic, full curve]"
same,Potency,[11],"inconclusive: 0.0066 µM [cytotoxic, partial curve, poor fit]"
C[C@]12CCC(=O)C(O)=C1CC[C@@H]1[C@H]3CCC(=O)[C@@]3(C)CC[C@@H]12,Potency,[12],"inconclusive: 13.2 µM [cytotoxic, partial curve, poor fit]"
same,Potency,[2],inactive
same,Potency,[3],"inconclusive: 1.32 µM [cytotoxic, full curve, poor fit]"
same,Potency,[17],"inconclusive: 0.662 µM [cytotoxic, partial curve, poor fit]"
same,Potency,[4],"inconclusive: 1.05 µM [cytotoxic, full curve, poor fit]"
same,Potency,[5],inactive
same,Potency,[19],"inconclusive: 0.0047 µM [rising, full curve, poor fit]"
same,Potency,[7],"inconclusive: 0.469 µM [cytotoxic, partial curve, poor fit]"
same,Potency,[16],inconclusive: 0.001 µM
same,Potency,[10],"inconclusive: 0.935 µM [cytotoxic, full curve, poor fit]"
same,Potency,[11],"inconclusive: 0.0042 µM [cytotoxic, full curve, poor fit]"

# Some of the entries so far, with tabs:
smiles	measurement	setting	value
CNC(=O)N1N=C(c2ccc(N)cc2)c2cc3c(cc2CC1C)OCO3 (stereo not drawn)	Potency	[4]	active: 3.72 µM
O=C(O)C(=O)c1cn(Cc2ccccc2)c2ccc(-c3ccc(OC(F)(F)F)cc3)cc12	Potency	[2]	inactive
C[C@H]1CCCC=CC2C[C@H](O)C[C@@H]2[C@H](O)C=CC(=O)O1 (stereo partly drawn)	Potency	[2]	inactive
C[C@]12CCC(=O)C(O)=C1CC[C@@H]1[C@H]3CCC(=O)[C@@]3(C)CC[C@@H]12	Potency	[10]	inconclusive: 0.935 µM [cytotoxic, full curve, poor fit]
